In experiment [1] the target is T1, HA-Set8 (UniProt Q9NQR1).
T1 sequence: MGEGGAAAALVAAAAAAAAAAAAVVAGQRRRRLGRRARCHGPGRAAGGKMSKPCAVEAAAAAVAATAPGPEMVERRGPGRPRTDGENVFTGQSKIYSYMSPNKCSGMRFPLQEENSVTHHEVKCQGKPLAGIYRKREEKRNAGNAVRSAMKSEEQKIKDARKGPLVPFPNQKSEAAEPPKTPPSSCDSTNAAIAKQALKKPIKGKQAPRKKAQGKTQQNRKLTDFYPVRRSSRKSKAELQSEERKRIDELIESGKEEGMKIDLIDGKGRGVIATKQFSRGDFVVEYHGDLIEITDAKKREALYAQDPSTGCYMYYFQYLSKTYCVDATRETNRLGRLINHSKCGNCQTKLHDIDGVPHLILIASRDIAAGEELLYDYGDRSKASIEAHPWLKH
Kind of experiment: co-IP; lysates of transfected HeLa or 293 T cells in EBC buffer (50 mM Tris pH 8.0, 120 mM NaCl, 0.5% NP-40); 800 μg lysate with 1-2 μg antibody overnight at 4 °C, carrier beads 1 h, washes in NETN buffer, immunoblot; in some panels cells were treated with D4476 or UVC.

By UniProt entry, the sequences of proteins in these tests, tags left out.
UniProt Q13616: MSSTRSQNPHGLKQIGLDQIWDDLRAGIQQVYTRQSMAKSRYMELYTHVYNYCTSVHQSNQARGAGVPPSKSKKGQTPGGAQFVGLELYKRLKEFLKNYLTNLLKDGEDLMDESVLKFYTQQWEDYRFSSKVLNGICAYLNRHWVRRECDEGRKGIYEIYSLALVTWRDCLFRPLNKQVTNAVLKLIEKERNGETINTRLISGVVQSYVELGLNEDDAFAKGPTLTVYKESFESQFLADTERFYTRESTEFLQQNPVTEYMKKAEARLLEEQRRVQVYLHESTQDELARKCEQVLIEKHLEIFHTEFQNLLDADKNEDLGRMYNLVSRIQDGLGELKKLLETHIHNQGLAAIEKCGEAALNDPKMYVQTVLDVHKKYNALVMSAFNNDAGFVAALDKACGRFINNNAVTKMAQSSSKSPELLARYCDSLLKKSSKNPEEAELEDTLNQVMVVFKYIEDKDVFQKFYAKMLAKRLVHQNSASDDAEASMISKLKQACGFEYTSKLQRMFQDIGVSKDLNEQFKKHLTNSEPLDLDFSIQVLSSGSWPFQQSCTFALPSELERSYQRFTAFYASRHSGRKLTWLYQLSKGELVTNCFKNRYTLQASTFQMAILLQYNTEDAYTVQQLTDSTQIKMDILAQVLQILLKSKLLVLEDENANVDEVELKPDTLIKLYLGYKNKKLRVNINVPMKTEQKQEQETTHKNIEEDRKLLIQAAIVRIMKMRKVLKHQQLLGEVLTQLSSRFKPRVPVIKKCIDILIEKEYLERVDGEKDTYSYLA
UniProt P63208: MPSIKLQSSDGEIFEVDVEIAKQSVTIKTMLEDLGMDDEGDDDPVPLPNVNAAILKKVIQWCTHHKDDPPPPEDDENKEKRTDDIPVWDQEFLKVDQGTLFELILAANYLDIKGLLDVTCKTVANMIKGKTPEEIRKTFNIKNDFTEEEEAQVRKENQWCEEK

Experiment [2] has as its target Myc-Cullin 1 (UniProt Q13616). Described as above.
Experiment [3] concerns the target Myc-Skp1 (UniProt P63208). The experiment is described as above.
Experiment [4] addresses GST-β-TRCP1. Kind of experiment: pull-down; GST pull-down from HeLa cells transfected with HA-Set8 and the indicated GST-F-box proteins; immunoblot. For orientation: In western blotting, separated proteins are transferred to a membrane and probed.
The target of experiment [5] is Flag-β-TRCP1. Briefly: co-IP; lysates of transfected HeLa or 293 T cells in EBC buffer (50 mM Tris pH 8.0, 120 mM NaCl, 0.5% NP-40); 800 μg lysate with 1-2 μg antibody overnight at 4 °C, carrier beads 1 h, washes in NETN buffer, immunoblot; in some panels cells were treated with D4476 or UVC.
Experiment [6] deals with Flag-β-TRCP1-R474A. The experiment is described as above.
In experiment [7] the target is Myc-β-TRCP1. The experiment is described as above.
Experiment [8] deals with HA-β-TRCP1. Described as above.

Results are given in words; binding and its absence hold for the method and conditions named. In cells and extracts the contact can be indirect. Binding calls can cover weak binding; strength is not graded here. For some of these results: Where a sequence is shown, tags or fusion partners need not be part of it.

Turning to “endogenous β-TRCP1 (human (endogenous in HeLa))”, the binding result in experiment [1] is “binds”.

With Flag-Set8^ΔPIP (from UniProt Q9NQR1), the binding entry in experiment [2] and in experiment [3] was “binds” each time.

B1: HA-Set8 (protein, UniProt Q9NQR1 1-393)
chain: MGEGGAAAALVAAAAAAAAAAAAVVAGQRRRRLGRRARCHGPGRAAGGKMSKPCAVEAAAAAVAATAPGPEMVERRGPGRPRTDGENVFTGQSKIYSYMSPNKCSGMRFPLQEENSVTHHEVKCQGKPLAGIYRKREEKRNAGNAVRSAMKSEEQKIKDARKGPLVPFPNQKSEAAEPPKTPPSSCDSTNAAIAKQALKKPIKGKQAPRKKAQGKTQQNRKLTDFYPVRRSSRKSKAELQSEERKRIDELIESGKEEGMKIDLIDGKGRGVIATKQFSRGDFVVEYHGDLIEITDAKKREALYAQDPSTGCYMYYFQYLSKTYCVDATRETNRLGRLINHSKCGNCQTKLHDIDGVPHLILIASRDIAAGEELLYDYGDRSKASIEAHPWLKH
For the molecule B1, the binding entry in experiment [4], in experiment [5], in experiment [6] and in experiment [7] was “binds” each time.

B2: Flag-Set8 (protein, UniProt Q9NQR1 1-393)
chain: MGEGGAAAALVAAAAAAAAAAAAVVAGQRRRRLGRRARCHGPGRAAGGKMSKPCAVEAAAAAVAATAPGPEMVERRGPGRPRTDGENVFTGQSKIYSYMSPNKCSGMRFPLQEENSVTHHEVKCQGKPLAGIYRKREEKRNAGNAVRSAMKSEEQKIKDARKGPLVPFPNQKSEAAEPPKTPPSSCDSTNAAIAKQALKKPIKGKQAPRKKAQGKTQQNRKLTDFYPVRRSSRKSKAELQSEERKRIDELIESGKEEGMKIDLIDGKGRGVIATKQFSRGDFVVEYHGDLIEITDAKKREALYAQDPSTGCYMYYFQYLSKTYCVDATRETNRLGRLINHSKCGNCQTKLHDIDGVPHLILIASRDIAAGEELLYDYGDRSKASIEAHPWLKH
For B2, the binding entry in experiment [8] is listed as “binds”.

B3: Flag-Set8^S253A (protein, UniProt Q9NQR1 1-393)
chain: MGEGGAAAALVAAAAAAAAAAAAVVAGQRRRRLGRRARCHGPGRAAGGKMSKPCAVEAAAAAVAATAPGPEMVERRGPGRPRTDGENVFTGQSKIYSYMSPNKCSGMRFPLQEENSVTHHEVKCQGKPLAGIYRKREEKRNAGNAVRSAMKSEEQKIKDARKGPLVPFPNQKSEAAEPPKTPPSSCDSTNAAIAKQALKKPIKGKQAPRKKAQGKTQQNRKLTDFYPVRRSSRKSKAELQSEERKRIDELIEAGKEEGMKIDLIDGKGRGVIATKQFSRGDFVVEYHGDLIEITDAKKREALYAQDPSTGCYMYYFQYLSKTYCVDATRETNRLGRLINHSKCGNCQTKLHDIDGVPHLILIASRDIAAGEELLYDYGDRSKASIEAHPWLKH
Take B3: the binding result in experiment [8] is reported as “no binding”.

B4: HA-S253A-Set8 (protein, UniProt Q9NQR1 1-393)
chain: MGEGGAAAALVAAAAAAAAAAAAVVAGQRRRRLGRRARCHGPGRAAGGKMSKPCAVEAAAAAVAATAPGPEMVERRGPGRPRTDGENVFTGQSKIYSYMSPNKCSGMRFPLQEENSVTHHEVKCQGKPLAGIYRKREEKRNAGNAVRSAMKSEEQKIKDARKGPLVPFPNQKSEAAEPPKTPPSSCDSTNAAIAKQALKKPIKGKQAPRKKAQGKTQQNRKLTDFYPVRRSSRKSKAELQSEERKRIDELIEAGKEEGMKIDLIDGKGRGVIATKQFSRGDFVVEYHGDLIEITDAKKREALYAQDPSTGCYMYYFQYLSKTYCVDATRETNRLGRLINHSKCGNCQTKLHDIDGVPHLILIASRDIAAGEELLYDYGDRSKASIEAHPWLKH
B4: the binding entry in experiment [5] is on record as “no binding”.

Source of the values: publication PMC4682171.
